From PMC10122647 (Nature Communications, 2022) come the findings set out here.

In this data set the test system is Rpa3 (Pyrococcus abyssi). Nature of the data set: SPR. The settings on record: 500 nM protein; SPR/BLI: 20 mM Na-HEPES pH 8, 150 mM NaCl, 25 C (+0.05% Tween for SPR; +0.2 mg/mL BSA for BLI); recombinant protein; protein details: TEV-cleavable N-terminal His14; label: 5'-biotin-TEG; single-stranded DNA.

For at least one entry, the source does not settle the construct or the ends of the probe. No signal at the amounts used counts as a negative.

With “TGCCAAGCTTGCATGCCTGCAGGTCGACTCTA [ssDNA-32mer]”, the binding result is reported as “no binding”.
